The record followed here is publication PMC5974425.

Sequences of proteins named here, by UniProt entry; tags and fusion partners are left off. A change or cut given only in a name is not applied to a line headed by its entry.
UniProt Q12923: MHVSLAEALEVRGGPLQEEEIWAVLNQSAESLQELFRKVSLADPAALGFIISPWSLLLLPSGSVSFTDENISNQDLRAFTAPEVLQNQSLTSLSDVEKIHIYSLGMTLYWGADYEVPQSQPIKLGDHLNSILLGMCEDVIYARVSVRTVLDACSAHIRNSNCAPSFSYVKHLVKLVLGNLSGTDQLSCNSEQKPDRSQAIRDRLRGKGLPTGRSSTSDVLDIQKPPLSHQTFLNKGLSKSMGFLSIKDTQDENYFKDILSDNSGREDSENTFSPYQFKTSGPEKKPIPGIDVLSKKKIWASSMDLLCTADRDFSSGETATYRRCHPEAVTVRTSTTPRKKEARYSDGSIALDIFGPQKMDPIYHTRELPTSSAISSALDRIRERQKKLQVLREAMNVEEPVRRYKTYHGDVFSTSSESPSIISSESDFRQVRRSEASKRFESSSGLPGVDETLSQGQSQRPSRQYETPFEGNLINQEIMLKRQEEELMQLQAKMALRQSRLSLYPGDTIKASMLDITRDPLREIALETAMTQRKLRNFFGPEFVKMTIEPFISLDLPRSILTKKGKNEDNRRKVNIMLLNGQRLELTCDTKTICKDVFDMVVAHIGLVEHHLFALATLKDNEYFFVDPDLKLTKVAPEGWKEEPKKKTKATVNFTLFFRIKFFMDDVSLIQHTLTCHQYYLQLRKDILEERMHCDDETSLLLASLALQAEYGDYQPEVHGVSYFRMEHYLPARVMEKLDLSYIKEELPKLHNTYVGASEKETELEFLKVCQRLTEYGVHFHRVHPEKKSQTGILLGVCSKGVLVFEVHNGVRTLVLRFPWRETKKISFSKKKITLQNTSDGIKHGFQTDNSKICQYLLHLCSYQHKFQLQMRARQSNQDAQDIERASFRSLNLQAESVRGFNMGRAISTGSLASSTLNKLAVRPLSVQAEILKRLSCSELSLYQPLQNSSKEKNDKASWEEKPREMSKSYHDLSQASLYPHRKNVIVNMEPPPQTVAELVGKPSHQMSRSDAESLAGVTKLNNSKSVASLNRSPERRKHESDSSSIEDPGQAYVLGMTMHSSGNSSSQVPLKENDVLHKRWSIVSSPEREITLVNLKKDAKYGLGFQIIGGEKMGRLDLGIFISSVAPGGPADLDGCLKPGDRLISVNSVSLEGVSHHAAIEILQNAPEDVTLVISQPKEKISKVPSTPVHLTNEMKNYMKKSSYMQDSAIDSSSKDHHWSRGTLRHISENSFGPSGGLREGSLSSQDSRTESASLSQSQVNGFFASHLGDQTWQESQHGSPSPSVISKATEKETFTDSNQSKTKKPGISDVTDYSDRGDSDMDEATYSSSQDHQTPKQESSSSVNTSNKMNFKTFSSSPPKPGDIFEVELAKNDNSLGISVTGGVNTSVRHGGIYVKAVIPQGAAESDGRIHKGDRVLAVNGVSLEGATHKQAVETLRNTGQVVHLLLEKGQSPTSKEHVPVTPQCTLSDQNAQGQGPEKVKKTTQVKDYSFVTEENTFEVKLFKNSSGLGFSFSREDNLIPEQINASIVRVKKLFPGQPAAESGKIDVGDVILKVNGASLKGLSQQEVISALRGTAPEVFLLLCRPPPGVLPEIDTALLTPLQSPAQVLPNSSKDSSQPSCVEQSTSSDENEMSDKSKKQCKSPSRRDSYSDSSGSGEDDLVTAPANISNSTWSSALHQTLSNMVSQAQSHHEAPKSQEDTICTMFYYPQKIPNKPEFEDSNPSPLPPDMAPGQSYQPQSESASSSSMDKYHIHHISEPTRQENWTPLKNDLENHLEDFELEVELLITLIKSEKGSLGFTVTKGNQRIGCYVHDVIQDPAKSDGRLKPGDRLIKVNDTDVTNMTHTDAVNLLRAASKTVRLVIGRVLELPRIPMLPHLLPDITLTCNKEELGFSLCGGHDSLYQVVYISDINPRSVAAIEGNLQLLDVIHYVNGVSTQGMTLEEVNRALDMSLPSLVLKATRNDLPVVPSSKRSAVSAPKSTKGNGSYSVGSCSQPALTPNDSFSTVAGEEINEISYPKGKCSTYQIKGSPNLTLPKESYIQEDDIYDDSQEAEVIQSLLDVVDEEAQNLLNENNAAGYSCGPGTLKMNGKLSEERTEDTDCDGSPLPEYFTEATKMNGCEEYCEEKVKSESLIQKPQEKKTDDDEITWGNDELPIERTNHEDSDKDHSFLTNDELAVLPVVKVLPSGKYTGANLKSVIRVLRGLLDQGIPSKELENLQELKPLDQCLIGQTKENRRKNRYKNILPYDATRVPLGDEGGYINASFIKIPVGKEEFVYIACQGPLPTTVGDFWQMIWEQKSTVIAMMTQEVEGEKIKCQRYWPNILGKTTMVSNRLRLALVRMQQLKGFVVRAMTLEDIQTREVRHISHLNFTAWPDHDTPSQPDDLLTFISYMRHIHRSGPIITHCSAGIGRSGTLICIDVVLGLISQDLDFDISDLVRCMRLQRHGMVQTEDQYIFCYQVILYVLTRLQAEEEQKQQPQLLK
UniProt Q16513: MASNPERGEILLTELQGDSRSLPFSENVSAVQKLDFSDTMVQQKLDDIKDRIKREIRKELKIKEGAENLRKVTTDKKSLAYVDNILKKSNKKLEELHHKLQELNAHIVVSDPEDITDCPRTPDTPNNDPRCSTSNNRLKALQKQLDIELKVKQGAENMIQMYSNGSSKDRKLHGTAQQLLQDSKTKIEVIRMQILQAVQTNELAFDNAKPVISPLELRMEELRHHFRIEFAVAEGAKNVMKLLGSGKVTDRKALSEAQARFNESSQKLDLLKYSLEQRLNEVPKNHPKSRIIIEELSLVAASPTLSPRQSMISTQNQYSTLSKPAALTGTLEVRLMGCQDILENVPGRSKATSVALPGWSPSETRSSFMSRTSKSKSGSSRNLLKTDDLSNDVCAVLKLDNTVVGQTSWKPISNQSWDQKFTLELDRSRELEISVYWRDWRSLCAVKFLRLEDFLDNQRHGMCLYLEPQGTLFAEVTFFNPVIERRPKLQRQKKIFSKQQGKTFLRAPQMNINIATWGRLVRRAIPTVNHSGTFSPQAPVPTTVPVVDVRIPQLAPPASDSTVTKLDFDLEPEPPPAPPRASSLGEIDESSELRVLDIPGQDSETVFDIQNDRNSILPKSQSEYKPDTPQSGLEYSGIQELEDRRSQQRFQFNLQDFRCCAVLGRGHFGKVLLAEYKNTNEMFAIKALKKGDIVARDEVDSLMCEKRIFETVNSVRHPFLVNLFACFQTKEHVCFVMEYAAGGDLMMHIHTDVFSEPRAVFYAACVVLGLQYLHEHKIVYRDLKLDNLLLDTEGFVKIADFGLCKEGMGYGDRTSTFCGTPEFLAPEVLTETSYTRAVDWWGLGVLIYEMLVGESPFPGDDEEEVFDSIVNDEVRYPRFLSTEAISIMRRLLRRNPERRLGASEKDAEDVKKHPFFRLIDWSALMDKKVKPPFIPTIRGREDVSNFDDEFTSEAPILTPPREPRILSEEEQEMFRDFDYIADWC

One assay has as its target GFP-PTPL1(ΔPDZ1-2) (UniProt Q12923). Briefly: co-IP; transfected HEK293T cells lysed in 1% Triton X-100, 50 mM Tris-HCl pH 7.5, 150 mM NaCl, 5 mM MgCl2; cleared lysates on agarose beads coupled to GFP binding protein, 1 h at 4°C; the GFP- or YFP-tagged protein is the bait; Western blot.
The next assay has as its target GFP-PTPL1(ΔPDZ2) (UniProt Q12923). The assay is described as above.

Results are given in words; binding and its absence hold for the method and conditions named. In cells and extracts the contact can be indirect. A result given as binding can be weak or reduced; the word gives no strength.

As to Flag-PKN2 (from UniProt Q16513 1-984), the binding result with GFP-PTPL1(ΔPDZ1-2) and with GFP-PTPL1(ΔPDZ2) was “binds” in each case.
